Data reported in patent US12637415B2, “Lyophilized composition comprising (s)-isopropyl 2-((s)-2-acetamido-3-(1H-indol-3-yl)propanamido)-6-diazo-5-oxohexanoate for intravenous administration and the use thereof” (DRACEN PHARMACEUTICALS, INC., priority 2019, dated 2026).
The name of at least one read-out is uncertain.

Tests used:
Assay type in all cases: physicochemical
[1] = Study Number 1: in-use stability diluted in normal saline in PVC containers (HPLC purity and concentration, 24 hour); conditions: room temperature
Description: The purity and concentration of Compound 1 as measured by HPLC were determined during a 24 hour test period while the drug product was held in its diluted state in normal saline in a polyvinyl chloride (PVC) clinical containers over a range of concentrations in 500 mL bags. The parameters of the study were: • Compound 1 dose: 6 mg and 150 mg in 500 mL • Concentration range: 0.012-0.3 mg/mL Compound 1 • Container size: 500 mL • Diluent: 0.9% normal saline, USP • Stability time points: 0, 4, 8, 24 hours • Storage condition: room temperature (15-25° C.) • Container composition: polyvinyl chloride • Light conditions: ambient light vs amber IV bag covers to limit UV exposure • Reconstitution: 80% (v/v) ethanol for reconstitution of the lyophilate, followed by dilution into normal saline.

[2] = Study Number 2: in-use stability in PVC and polyolefin containers, 4 hour hold plus 1 hour infusion (HPLC); conditions: through 4 hour hold and 1 hour infusion, with and without amber shroud, regardless of container composition
Description: (§1) The purity and concentration of Compound 1 as measured by HPLC were determined during a 5 hour test period while the drug product was held in polyvinyl chloride (PVC) and non-PVC, non-DEHP (polyolefin) clinical containers over a range of concentrations in 500 mL containers. Admixed containers were delivered with an […] infusion set by holding the infusion bag with diluted test article for 4 hours prior to a 1 hour infusion to assess in use stability over a total of 5 hours to mimic clinical practice. The parameters of the study were: • Compound 1 dose: 6 mg and 150 mg in 500 mL • Concentration range: 0.012-0.3 mg/mL Compound 1 • Container size: 500 mL • Diluent: 0.9% normal saline, USP • Stability time points: 0 hours, 4 hours (pre-infusion), 5 hours (post-1 hour infusion) • Storage condition: room temperature (15-25° C.) • Container composition: polyvinyl chloride and non-PVC, non-DEHP (polyolefin) • Light conditions: ambient light vs amber IV bag covers to limit UV exposure • Reconstitution: 80% (v/v) ethanol for reconstitution of the lyophilate, followed by dilution into normal saline.

[3] = Study Number 3: in-use stability in polyolefin containers after 50% ethanol reconstitution, 4 hour hold plus 1 hour infusion (HPLC); conditions: through 4 hour hold and 1 hour infusion with both PVC and low sorbing infusion tubing sets
Description: as §1, with “a” for “polyvinyl chloride (PVC) and non-PVC,”, “120” for “150”, “0.012-0.24” for “0.012-0.3”, “composition:” for “composition: polyvinyl chloride and non-PVC,”, “conditions:” for “conditions: ambient light vs”, “50%” for “80%”

Measured: Assay recovery (HPLC)

CC(=O)N[C@@H](Cc1c[nH]c2ccccc12)C(=O)N[C@@H](CCC(=O)C=[N+]=[N-])C(=O)OC(C)C [Compound 1, (S)-isopropyl 2-((S)-2-acetamido-3-(1H-indol-3-yl)propanamido)-6-diazo-5-oxohexanoate]
no significant loss of recovery: [1]; up to 8 hours under ambient light | [1]; up to 24 hours with amber covered shroud | [2] | [3]
